Results from PubChem BioAssay AID1794845 (National Center for Advancing Translational Sciences (NCATS), 2023).
In all, about 6,900 compounds went through this assay and fewer than 10 were called active. Calls follow the shape of the dose curve; as a rule, active = well fitted curve in the direction sought with a large enough effect; inconclusive = small, poorly fitted or top-dose-only effect, or another doubt; inactive = no such curve, though single readings can be large or run the other way. Some of the results follow.

Chains of the proteins cited; added tags and fusions are not shown. Lines headed by an entry give the natural chain unless they say otherwise; changes in a name come on top.
UniProt C7C422: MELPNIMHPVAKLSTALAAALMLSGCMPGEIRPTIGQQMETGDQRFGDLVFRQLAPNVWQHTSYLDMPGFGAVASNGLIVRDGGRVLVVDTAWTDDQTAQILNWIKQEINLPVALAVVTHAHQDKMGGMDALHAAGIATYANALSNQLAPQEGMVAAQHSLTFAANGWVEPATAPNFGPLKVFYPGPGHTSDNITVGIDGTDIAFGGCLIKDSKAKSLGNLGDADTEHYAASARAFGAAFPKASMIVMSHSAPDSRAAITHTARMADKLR

Biological target: Metallo-beta-lactamase type 2 (Klebsiella pneumoniae) (UniProt C7C422)
Assay: qHTS to identify inhibitors of the New Delhi Metallo-beta-lactamase (NDM): primary screen against the NCATS Gemini Collection; also: % of control where 0% means no effect
Conditions: NDM-1 enzyme, meropenem hydrolysis, absorbance 300 nm; at 38.4 µM (top of the series) unless noted
Summary of the method: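 Meropenem hydrolysis (50 uM final) by 2 nM NDM-1 read as 300 nm absorbance after 30 min, following >30 min compound–enzyme preincubation in HEPES pH 7.0 with 1 uM ZnSO4 and 0.01% Tween20.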

Activity % (negative = inhibition), inactive:
CN1c2cc(C(=O)NC3CCCCCC3)ccc2C(=O)N2CCCC21 (centres undefined) 0.477%
Cc1nc([C@@H]2CN(C(=O)CCc3c[nH]c4ccccc34)C[C@H]2C(N)=O)n[nH]1 0.782%
O=C(NCC1CCCCCC1)C1CCN(Cc2ccccc2-c2cccnc2)CC1 12%
c1ccc(CCN2CCNc3cc(NCc4cccnc4)ncc3C2)cc1 35.2% [at 57.5 µM]
COC[C@H]1CCCN1c1nc(CCN)nc2sc(C)c(C)c12 20.6%
CNC(=O)c1cccc(-c2ccccc2COc2ccc(CCOC)cc2)n1 2.78%
Cn1ccnc1CN1C[C@@H](F)[C@@H](OCc2nc3ccccc3[nH]2)C1 10.8% [at 57.5 µM]
CCC1(N2CCN(C(=O)Nc3cc(C)ccc3OC)CC2)CCN(C(=O)C(C)C)C1 (centres undefined) 20.4%
Cc1ccccc1C(CC(=O)N1CCSCC1)c1ccccc1 (centres undefined) 0.408%
C[S+](=O)([O-])c1ccc(-c2cnc3n[nH]c(-c4ccccc4)c3n2)cc1 8.05% [at 57.5 µM]
COCCOCc1nc(C2CCCN2C(=O)Nc2ccc(F)cc2F)no1 (centres undefined) -10%
O=C(NCc1ccc(Cl)cc1)c1cc2cccnn2n1 11.1% [at 57.5 µM]
O=C(CN1CCCCC1)N1CCCC(N2CCN(Cc3ccc4c(c3)OCO4)CC2)C1 (centres undefined) 3.65%
CSc1cccc(CN(C)Cc2cc3n(n2)CCNC3)c1 0.138%
Cc1cc(C[C@@H]2COC[C@@H]2NC(=O)c2cccc(-n3nc(C)cc3C)c2)on1 1.08%
CCC(C)NC(=O)Cn1nc2n(c1=O)CCCCC2 (centres undefined) 0.148%
O=C(C1CC1)N1C[C@@H]2OCC(=O)N(Cc3ccc(F)cc3)[C@@H]2C1 0.688% [at 57.5 µM]
CC(=O)N1CCCC(c2nc(-c3ccc4nc[nH]c4c3)no2)C1 (centres undefined) 12.4%
CCS(=O)(=O)N1CCC(c2noc(COc3ccc(F)cc3)n2)C1 (centres undefined) -1.52%
CCC(O)CNC(=O)c1cn2cc(-c3ccc(F)cc3)n(CC=C(C)C)c(=O)c2n1 (centres undefined) -4.62%
COc1ccc(F)cc1-c1ccc(CN2CCC(N[S+](=O)([O-])c3cccs3)C2)cc1 (centres undefined) -1.15%
O[C@@H]1C[C@@H](c2nc(Cc3ccc(F)cc3Cl)no2)N(Cc2ccco2)C1 10.2% [at 57.5 µM]
Cn1ccc(C(=O)N2CCC3(CC2)CC(=O)N(C/C=C/c2ccccc2)C3)n1 4.48%
CN1C(=O)CC[C@]2(C(=O)N3CCN(c4ccccc4)CC3)CCCC[C@@H]12 -0.104%

Of the compounds above, 2 contain a Cl atom.
Activity % (negative = inhibition), inactive:
O=C(NCc1ccc(Cl)cc1)c1cc2cccnn2n1 11.1% [at 57.5 µM]
O[C@@H]1C[C@@H](c2nc(Cc3ccc(F)cc3Cl)no2)N(Cc2ccco2)C1 10.2% [at 57.5 µM]
